± gives the standard deviation. This is a selection; strong and weak results do not stand in their true shares. The uncertainty is large for many entries.

Experimental findings from the supplement of paper PMC10338343 are described below.

For assay [1], the system named is MILI (PIWIL2) piRISC loaded with piRNA #1 (26 nt). In words: pre-steady-state target cleavage rate (min^-1); higher = faster piRNA-guided slicing of the target. To be noted: guide: piRNA #1 5'p-UGAGGUAGUAGGUUGUAUAGUAUCCA; auxiliary factor: 500 nM mouse GTSF1. The gist of the method: (§1)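 Active affinity-purified piRISC (1 nM) loaded with one synthetic guide was mixed with a transcribed, DNA-blocked target RNA library (0.1 nM), with or without 500 nM GTSF1 partner protein, in HEPES–potassium acetate buffer at 33 °C for 0–8 or 0–960 min. Uncleaved targets were sequenced, normalised to depth and to weakly complementary targets, and pooled across three trials, with k3 capped at 0.0001 min^-1. The pre-steady-state cleavage rate was determined with a burst-and-steady-state fit.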

The test system of assay [2] is MIWI (PIWIL1) piRISC loaded with piRNA #1 (30 nt). The assay is described as above. To be noted: guide: piRNA #1 5'p-UGAGGUAGUAGGUUGUAUAGUAUCCAGAGG; auxiliary factor: 500 nM mouse GTSF1. The gist of the method:
as §1

Assay [3] deals with EfPiwi piRISC loaded with piRNA #1 (26 nt). Nature of the assay: pre-steady-state target cleavage rate (min^-1); guide: piRNA #1 5'p-UGAGGUAGUAGGUUGUAUAGUAUCCA; MIWI and MILI are mouse PIWI proteins and EfPiwi is from a freshwater sponge; tags in brackets are library labels; higher = faster piRNA-guided slicing of the target. To be noted: auxiliary factor: 500 nM Ephydatia muelleri Gtsf1. The gist of the method: as §1

Regarding GGAGACCUAUGAUAACAACGCUACUACCUCA, the “pre-steady-state target cleavage rate” value in assay [1] was 0.000517 ± 0.01; in assay [2], 0.000142 ± 0.018; in assay [3], 0.000972 ± 0.0088.
Take GGAGACCUAUGAUAACAACCUAGAACCUCA: the “pre-steady-state target cleavage rate” value in assay [1] came to 0.00115 ± 0.0075; in assay [2], 0.000241 ± 0.015; in assay [3], 0.000162 ± 0.02.
The corresponding values for GGAGACCUAUGAAAACAACGUACUACCUCA are 0.00272 ± 0.0028, 0.000297 ± 0.0083 and 0.00101 ± 0.0076.
In the same order, the values of GGAGACCUAUGAUAACAAGCUACUACGUCA are 0.00208 ± 0.0042, 0.00107 ± 0.0061 and 0.00139 ± 0.0048.
For GGAGACCUAUGAUAUGUUGCUAACUACCUCA, the “pre-steady-state target cleavage rate” value in assay [1] turned out to be 0.000699 ± 0.0077; in assay [2], 0.00155 ± 0.0042; in assay [3], 0.000398 ± 0.0046.
In the case of GGAGACCUAUGAAUACAACCUACAAGCUCA, the figures for the “pre-steady-state target cleavage rate” value in assay [1], in assay [2] and in assay [3] were 0.00137 ± 0.0043, 0.000135 ± 0.018 and 0.000121 ± 0.022, respectively.
As to GGAGACCUAUGAUAACAUACCUACUACCUCA, the “pre-steady-state target cleavage rate” value came to 0.000724 ± 0.0071 in assay [1], 0.000153 ± 0.016 in assay [2] and 0.000204 ± 0.012 in assay [3].
Take “GGAGACCUAUGUAUACAACCUACUAGGAGA [g6:g19:cont:t1A]”: the “pre-steady-state target cleavage rate” value in assay [1] amounted to 0.000624 ± 0.011; in assay [2], 0.000824 ± 0.006; in assay [3], 0.000813 ± 0.009.
In the case of GGAGACCUAUGAUAUGUUGCUACAUACCUCA, the results for the “pre-steady-state target cleavage rate” value in assay [1], in assay [2] and in assay [3] were 0.000321 ± 0.016, 0.000852 ± 0.0065 and 0.000103 ± 0.026, respectively.
As to GGAGACCUAUGAUAACAACCUACUAUCUCA, the “pre-steady-state target cleavage rate” value in assay [1] was 0.00246 ± 0.0027; in assay [2] it was 0.000248 ± 0.0077; in assay [3], 0.000887 ± 0.0074.
With GGAGACCUAACUAAACAACCAACUACCUCA, the “pre-steady-state target cleavage rate” value was 0.00427 ± 0.005 in assay [1], 0.00167 ± 0.0071 in assay [2] and 0.00149 ± 0.0072 in assay [3].
For GGAGACCUAUGAUAUCAACCUACUACCCCA, the entries for the “pre-steady-state target cleavage rate” value in assay [1], in assay [2] and in assay [3] were 0.000794 ± 0.0078, 0.000341 ± 0.0061 and 0.000869 ± 0.0096, respectively.
GGAGACCUAUGAAUACAACCUAUCUACCUCA: the “pre-steady-state target cleavage rate” value came to 0.00974 ± 0.0026 in assay [1], 0.00145 ± 0.0043 in assay [2] and 0.000182 ± 0.015 in assay [3].
Regarding GGAGACCUAUGAAUACAACCUUCUAGCUCA, the “pre-steady-state target cleavage rate” value in assay [1] was found to be 0.000403 ± 0.0081; in assay [2] it was 0.000165 ± 0.014; in assay [3] it was 0.000712 ± 0.01.
Turning to GGAGACCUAUGAUAUGUUCCAUACUACCUCA, the “pre-steady-state target cleavage rate” value in assay [1] worked out at 0.000557 ± 0.01; in assay [2] it was 0.00108 ± 0.0051; in assay [3] it was 0.00048 ± 0.0065.
As for GGAGACCUAUGAUAACUACCUACUAGCUCA, the “pre-steady-state target cleavage rate” value in assay [1] was determined as 0.00197 ± 0.0041; in assay [2] it was 0.00011 ± 0.018; in assay [3], 0.000277 ± 0.0084.
In the same order, the values of GGAGACCUAUGAUAUCAACCUACUACGUCA are 0.000469 ± 0.0073, 0.000341 ± 0.0058 and 0.00074 ± 0.007.
The corresponding values for GGAGACCUAUGAAUACAACCUACUCCCUCA are 0.00391 ± 0.0022, 0.00154 ± 0.0025 and 0.00207 ± 0.0041.
As to GGAGACCUAUGAUUACAACCUACUACCCA, the “pre-steady-state target cleavage rate” value is 0.00105 ± 0.0065 in assay [1], 0.000526 ± 0.0092 in assay [2] and 0.00031 ± 0.015 in assay [3].
For the sequence GGAGACCUAUGAUAUGUUGCUACUACCUGA, the “pre-steady-state target cleavage rate” value in assay [1] was found to be 0.000315 ± 0.012; in assay [2], 0.000344 ± 0.0087; in assay [3] it was 0.000453 ± 0.0058.
